Results reported in PubChem BioAssay AID1439 (NMMLSC, 2008).
Several values for one entry are separate records, joined by “and”; a condition that tells them apart may be missing. Equal values may be shown once. Hit rate of the full screen: of about 220,000 compounds, about 770 (0.35%) were called active. Inconclusive results, whose numbers are uncertain, are shown with a selection of clear calls. No stated cut-off is given here; in the data, active means binding response below about 49% or above about 150%; inconclusive means no clear call, values can overlap the other calls; inactive means in between.

Amino acid sequences for entries named in this document (tags omitted).
UniProt P09471, whole entry, looked up: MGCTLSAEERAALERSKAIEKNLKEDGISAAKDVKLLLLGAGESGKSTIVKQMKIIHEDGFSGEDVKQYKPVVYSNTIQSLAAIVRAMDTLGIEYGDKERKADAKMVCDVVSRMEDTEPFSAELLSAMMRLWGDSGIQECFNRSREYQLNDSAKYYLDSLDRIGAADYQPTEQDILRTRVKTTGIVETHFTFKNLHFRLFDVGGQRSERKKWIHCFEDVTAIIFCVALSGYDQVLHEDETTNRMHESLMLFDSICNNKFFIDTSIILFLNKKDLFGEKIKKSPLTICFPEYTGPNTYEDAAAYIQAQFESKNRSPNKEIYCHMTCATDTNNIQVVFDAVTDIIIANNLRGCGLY

Molecular target: Guanine nucleotide-binding protein G(o) subunit alpha (Homo sapiens) (UniProt P09471)
Test: RGS7-Galphao binding modulators, primary screen, biochemical, multiplexed bead flow cytometry (AID 1439);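 further: fluorescent Galphao held in activated GDP-AlF4 state binding bead-coupled RGS7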
Conditions: at 10 µM, actives lie on both sides

SMILES	binding response (% of control)
CCCCC1(C)NC(=S)N2N1C(=S)NC2(C)CCCC (stereo not given)	inconclusive: 74.8%
Fc1ccc(-c2cc(C(F)(F)C(F)F)[nH]n2)cc1	inconclusive: 416%
CC(C)S(=O)(=O)c1csc(NC(=O)Nc2ccc(Cl)cc2)c1Cl	inconclusive: 429%
COc1ccc(C(=O)n2nc(C#N)c(C#N)c2N)cc1	inconclusive: 69.6%
O=C(CCCN=C1NS(=O)(=O)c2ccccc21)OCc1cc([N+](=O)[O-])cc2c1OCOC2	inconclusive: 102%
FC(F)(F)c1cc(-c2ccccn2)nc2cc(-c3ccccc3)nn12	inconclusive: 79.8%
NC(=S)NNc1ccc(Cl)c(Cl)c1	inconclusive: 107%
COC(=O)CCCCCCCCC(O)CN(C)C (stereo not given)	inconclusive: 119%
Cc1ccc(NC(=O)Nc2ccccc2C(N)=O)cc1	inconclusive: 139%
O=C1/C(=C/c2ccncc2)SC(=S)N1Cc1ccccc1	inconclusive: 141%
CC(=O)OC1CCC2(C)C(=CCC3C2CCC2(C)C3CC3OC4(CCC(C)CN4)C(C)C32)C1 (stereo not given)	inconclusive: 98.1%
CC(=O)c1ccc(Sc2ccccn2)c([N+](=O)[O-])c1	inconclusive: 86.2%
CC(C)CC(=O)Nc1ccc2ccccc2c1	inconclusive: 77% and inconclusive: 147%
Cc1nn(-c2ccccc2)cc1/C=N/NC(=O)c1cccs1	inconclusive: 90.5%
O=C1NCCc2c1[nH]c1ccccc21	inconclusive: 83.8%
CCOC(=O)c1ccc(N2CCCCC2)c(NS(=O)(=O)c2ccc(C)cc2)c1	inconclusive: 15.2%
Cc1cc(C)c2nc(Nc3nc(-c4ccccc4)cc(=O)[nH]3)nc(C)c2c1	inconclusive: 10.8%
NC(=S)N/N=C/c1coc2cc(Br)ccc2c1=O	inconclusive: 88.9%
CCOC(=O)c1oc2ccccc2c1NC(=O)CCl	inconclusive: 119%
Fc1c(CSC(=S)N2CCOCC2)cccc1CSC(=S)N1CCOCC1	inconclusive: 71.5%
O=C(Nc1ccccc1)c1cccc(Cn2cc(C(F)(F)F)ccc2=O)c1	inconclusive: 106%
O=C(c1ccc2c3n(nc2c1)-c1ccccc1CO3)N1CCOCC1	inconclusive: 110%
CC1CCN(C(=O)c2[nH]cnc2C(=O)N[C@@H](C)C(=O)OCc2ccccc2)CC1	inconclusive: 103%

SMILES	binding response (% of control)
CCC1=C2CC[C@H]3C(=O)N(CC(=O)OC)C(=O)[C@H]3[C@H]2[C@@]2(C)C(=NCC(=O)OC)OC(=O)N2C1=O	inconclusive: 106%
CNc1ccc(/C=C2\CSc3ccccc3C2=O)cc1[N+](=O)[O-]	inconclusive: 89.5%
CCN(CC)S(=O)(=O)c1ccc(C)c(NS(=O)(=O)c2cc(/C=C/C(=O)O)cc(OC)c2OC)c1	inconclusive: 94.3%
OCC1(CCc2ccccc2)CCN(Cc2ccc3nsnc3c2)CC1	inactive: 96.7%
NC(=O)CC(NC(=O)c1ccccc1)c1ccc(NCC2CC2)c([N+](=O)[O-])c1 (stereo not given)	inconclusive: 75.6%
Nc1c(-c2ccccn2)cnn1-c1nc(-c2ccc(F)cc2)cs1	inconclusive: 84%
CC[n+]1c(C)cc2c(sc3ccccc32)c1C	inconclusive: 124%
COc1cccc(Cn2c(=O)ccc3ccccc32)c1	inconclusive: 129%
CN1CCc2c(OCC(=O)N3CCC(Cc4ccccc4)CC3)cccc2C1=O	inconclusive: 99.3%
Cc1ccc(NC(=O)N2CCCC(C(=O)O)C2)cc1 (stereo not given)	inconclusive: 101%
CCOC(=O)c1cc(C)nc(N2CCCCC2)c1C#N	inconclusive: 97.4%
O=C(Nc1cccc(Cl)c1)NC1CC2CCC(C1)N2Cc1ccco1 (stereo not given)	inconclusive: 83.5%
CCNC(=S)/C(=C(/[O-])c1ccc([N+](=O)[O-])cc1)[n+]1ccccc1	inconclusive: 763%
CCn1cc(Br)c(C(=O)Nc2ccccc2C(=O)OC)n1	inconclusive: 93.4%
O=C(O)CSc1ccnc2cc(Cl)ccc12	inconclusive: 109%
COc1ccccc1Cn1[nH]nnc1=S	inconclusive: 141%
O=C(CCCc1nc2ccccc2s1)NNC(=O)CCN1CCN(Cc2ccccc2)CC1	inconclusive: 96.5%
COc1cccc(NC(=S)NC2CC3CCCC(C2)N3CC(C)C)c1 (stereo not given)	inactive: 101%
CC(=O)c1ccc(S(=O)(=O)Nc2ccc(-c3ccc4nnc(C)n4n3)cc2)cc1	inconclusive: 72.5%
CC(C)N=C1CC(C)(C)CC(=O)/C1=C(/O)CCCN1C(=O)c2ccccc2C1=O	inconclusive: 107%
CCN1C(=O)C(CC(=O)Nc2ccc(C)cc2C)Nc2cc(S(=O)(=O)N(C)C)ccc21 (stereo not given)	inactive: 104%
COC(=O)COc1ccc(S(=O)(=O)Nc2cc([N+](=O)[O-])ccc2C)cc1	inconclusive: 105%

For reference, 2 of the compounds above:
SMILES	binding response (% of control)
O=C(Nc1cccc(Cl)c1)NC1CC2CCC(C1)N2Cc1ccco1 (stereo not given)	inconclusive: 83.5%
CCNC(=S)/C(=C(/[O-])c1ccc([N+](=O)[O-])cc1)[n+]1ccccc1	inconclusive: 763%
